From PMC6731260
No constants are given. Whether binding was seen depends on the method and setting. Binding seen in cells or lysates may run through a third protein. Binding calls can cover weak binding; strength is not graded here. Sequences can lack the tags named with a protein.

Tests used:
[1] = target: EGFP-ESRRB (full-length mouse Esrrb in pEGFP-C1) (mouse); assay: co-IP; HEK293T cells co-expressing EGFP-ESRRB or EGFP-ESRRB^S25A with FLAG-OCT4 or FLAG-NANOG; Sucrose-NP40 lysate with GFP-magnetic beads, 4 °C, 2 h; immunoblot; also after DMSO or Thiamet-G (OGA inhibitor) for 48 h
[2] = target: EGFP-ESRRB^S25A (full-length mouse Esrrb^S25A in pEGFP-C1) (mouse); assay: as above

B1: FLAG-NANOG (full-length mouse Nanog in p3xFLAG-CMV-10) (protein, UniProt Q80Z64 1-305)
chain: MSVGLPGPHSLPSSEEASNSGNASSMPAVFHPENYSCLQGSATEMLCTEAASPRPSSEDLPLQGSPDSSTSPKQKLSSPEADKGPEEEENKVLARKQKMRTVFSQAQLCALKDRFQKQKYLSLQQMQELSSILNLSYKQVKTWFQNQRMKCKRWQKNQWLKTSNGLIQKGSAPVEYPSIHCSYPQGYLVNASGSLSMWGSQTWTNPTWSSQTWTNPTWNNQTWTNPTWSSQAWTAQSWNGQPWNAAPLHNFGEDFLQPYVQLQQNFSASDLEVNLEATRESHAHFSTPQALELFLNYSVTPPGEI
binding [1]: binds | binding [2]: binds
